{"source": "paper doi:10.1101/2022.12.21.521423", "about": "(bioRxiv, 2022)", "biological_target": "T1, LRRC37B-HA (human) (UniProt Q96QE4)", "T1 sequence": "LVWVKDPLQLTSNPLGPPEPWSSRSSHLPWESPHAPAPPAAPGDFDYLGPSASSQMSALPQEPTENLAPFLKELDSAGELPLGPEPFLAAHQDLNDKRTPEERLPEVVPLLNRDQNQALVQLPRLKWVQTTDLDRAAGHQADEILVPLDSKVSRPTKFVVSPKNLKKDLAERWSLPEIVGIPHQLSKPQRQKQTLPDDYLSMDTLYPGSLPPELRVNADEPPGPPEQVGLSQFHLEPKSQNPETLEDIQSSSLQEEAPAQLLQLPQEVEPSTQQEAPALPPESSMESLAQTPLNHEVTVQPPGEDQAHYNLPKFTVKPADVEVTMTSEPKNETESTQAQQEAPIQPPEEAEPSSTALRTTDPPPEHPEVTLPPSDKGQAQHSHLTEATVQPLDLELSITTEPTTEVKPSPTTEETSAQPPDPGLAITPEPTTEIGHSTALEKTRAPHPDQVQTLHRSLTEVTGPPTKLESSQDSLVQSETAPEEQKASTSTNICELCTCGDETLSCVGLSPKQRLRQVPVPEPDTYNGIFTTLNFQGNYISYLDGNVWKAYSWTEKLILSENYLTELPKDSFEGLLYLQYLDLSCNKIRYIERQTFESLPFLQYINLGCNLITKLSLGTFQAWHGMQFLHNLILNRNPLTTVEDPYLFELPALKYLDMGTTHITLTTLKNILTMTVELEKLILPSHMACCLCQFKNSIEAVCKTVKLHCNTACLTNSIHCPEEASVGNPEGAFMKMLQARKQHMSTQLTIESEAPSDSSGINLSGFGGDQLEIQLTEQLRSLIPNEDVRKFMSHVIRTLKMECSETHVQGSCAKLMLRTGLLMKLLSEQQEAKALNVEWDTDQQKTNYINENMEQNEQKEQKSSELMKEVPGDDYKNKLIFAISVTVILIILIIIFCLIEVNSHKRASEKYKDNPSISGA", "test": "co-IP", "note": "Results are given in words; binding and its absence hold for the method and conditions named. Binding seen in cells or lysates may run through a third protein. Where a sequence is shown, tags or fusion partners need not be part of it."}
{"substance": "FGF13 core domain (human (from the printed UniProt entry)) (domain or fragment)", "values": [{"measurement": "binding", "result": "no binding"}]}
